These results are taken from paper PMC5727935, “The distinctive cell division interactome of Neisseria gonorrhoeae” (BMC Microbiology, 2017).

Holding throughout (experiment): two-hybrid; bacterial two-hybrid (Di Lallo): fusions to P22 and 434 repressor ends in E. coli R721, 34 °C; residual β-galactosidase activity against R721 without plasmids (2504 ± 34 Miller units); less than 50% counts as a positive interaction
The target in test [1] is T1, N. gonorrhoeae FtsA, bacterial two-hybrid fusion (Neisseria gonorrhoeae CH811) (UniProt Q5F6M2).
T1 sequence: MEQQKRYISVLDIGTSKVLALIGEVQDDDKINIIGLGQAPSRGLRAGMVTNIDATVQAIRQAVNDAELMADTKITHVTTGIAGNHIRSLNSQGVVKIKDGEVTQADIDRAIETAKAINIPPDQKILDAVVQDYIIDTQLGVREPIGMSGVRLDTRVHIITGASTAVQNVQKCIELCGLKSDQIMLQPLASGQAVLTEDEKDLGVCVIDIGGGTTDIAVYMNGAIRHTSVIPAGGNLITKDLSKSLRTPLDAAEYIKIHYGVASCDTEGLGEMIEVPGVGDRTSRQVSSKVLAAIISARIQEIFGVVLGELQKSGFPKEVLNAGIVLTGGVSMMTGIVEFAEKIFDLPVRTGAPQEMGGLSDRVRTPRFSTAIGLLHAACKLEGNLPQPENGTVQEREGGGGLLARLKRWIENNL

The target of test [2] is T2, N. gonorrhoeae FtsQ, bacterial two-hybrid fusion (Neisseria gonorrhoeae CH811) (UniProt Q5F6M1).
T2 sequence: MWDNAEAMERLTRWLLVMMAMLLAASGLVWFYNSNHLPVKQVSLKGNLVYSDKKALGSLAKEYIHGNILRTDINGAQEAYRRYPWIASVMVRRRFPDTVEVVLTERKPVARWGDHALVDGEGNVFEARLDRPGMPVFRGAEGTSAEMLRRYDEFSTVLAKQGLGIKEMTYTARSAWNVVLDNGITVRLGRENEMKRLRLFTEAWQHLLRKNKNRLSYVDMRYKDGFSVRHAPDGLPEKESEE

The target of test [3] is T3, N. gonorrhoeae FtsW, bacterial two-hybrid fusion (Neisseria gonorrhoeae CH811) (UniProt B4RQC6).
T3 sequence: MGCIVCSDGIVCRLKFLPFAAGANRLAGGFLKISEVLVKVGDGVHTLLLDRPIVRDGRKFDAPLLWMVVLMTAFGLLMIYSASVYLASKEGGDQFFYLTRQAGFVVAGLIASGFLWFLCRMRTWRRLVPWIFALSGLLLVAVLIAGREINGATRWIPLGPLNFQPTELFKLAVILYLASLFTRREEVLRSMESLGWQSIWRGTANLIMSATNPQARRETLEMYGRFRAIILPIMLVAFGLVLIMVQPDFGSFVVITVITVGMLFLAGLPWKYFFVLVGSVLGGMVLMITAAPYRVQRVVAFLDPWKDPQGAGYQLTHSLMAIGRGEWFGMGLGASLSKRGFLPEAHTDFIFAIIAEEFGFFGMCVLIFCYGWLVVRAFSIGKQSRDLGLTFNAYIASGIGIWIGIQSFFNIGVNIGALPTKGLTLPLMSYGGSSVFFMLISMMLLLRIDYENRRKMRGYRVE

Test [4] deals with T4, N. gonorrhoeae FtsZ, bacterial two-hybrid fusion (Neisseria gonorrhoeae) (UniProt P72079).
T4 sequence: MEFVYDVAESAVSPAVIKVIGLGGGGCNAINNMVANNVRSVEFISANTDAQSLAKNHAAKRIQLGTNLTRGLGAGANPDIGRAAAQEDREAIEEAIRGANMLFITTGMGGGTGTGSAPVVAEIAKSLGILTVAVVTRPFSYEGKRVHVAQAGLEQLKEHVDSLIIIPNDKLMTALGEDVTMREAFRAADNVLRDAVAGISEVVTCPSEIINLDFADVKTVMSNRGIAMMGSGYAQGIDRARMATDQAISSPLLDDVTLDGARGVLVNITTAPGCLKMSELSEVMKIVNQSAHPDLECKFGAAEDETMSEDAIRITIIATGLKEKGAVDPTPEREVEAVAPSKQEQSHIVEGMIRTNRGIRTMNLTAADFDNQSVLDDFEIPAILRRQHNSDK

The target of test [5] is N. gonorrhoeae FtsK, bacterial two-hybrid fusion (Neisseria gonorrhoeae CH811).
The target of test [6] is N. gonorrhoeae FtsN, bacterial two-hybrid fusion (Neisseria gonorrhoeae CH811).

No constants are given. Whether binding was seen depends on the method and setting. Tags and fused reporters may be left off the sequences shown.

“N. gonorrhoeae ZipA, bacterial two-hybrid fusion (Neisseria gonorrhoeae CH811)”: the binding result in test [1], in test [2] and in test [3] was “no binding” in each case.

“N. gonorrhoeae FtsI, bacterial two-hybrid fusion (Neisseria gonorrhoeae CH811)”: the binding entry in test [1], in test [2] and in test [4] was “no binding” in each case.

For the molecule “FtsANg truncation T6 (amino acids 351-414), bacterial two-hybrid fusion (Neisseria gonorrhoeae) (domain or fragment)”, the binding result in test [2], in test [3] and in test [4] was “no binding” each time.

On to “N. gonorrhoeae FtsK, bacterial two-hybrid fusion (Neisseria gonorrhoeae CH811)”, for which the binding result in test [3] is listed as “no binding”.

B1: N. gonorrhoeae FtsQ, bacterial two-hybrid fusion (protein, UniProt Q5F6M1 1-242)
chain: T2 sequence
For the molecule B1, the binding result in test [5] and in test [6] was “no binding” in each case.

B2: N. gonorrhoeae FtsW, bacterial two-hybrid fusion (protein, UniProt B4RQC6 1-462)
chain: T3 sequence
For B2, the binding entry in test [6] is on record as “no binding”.

B3: N. gonorrhoeae FtsZ, bacterial two-hybrid fusion (natural protein, Neisseria gonorrhoeae, UniProt P72079 1-392, looked up)
chain: T4 sequence
notes: FtsZ of Neisseria gonorrhoeae; Cloned in both vectors (pcIp22 and pcI434); each fusion carries one of the two repressor ends; also called FtsZNg; pcIp22-Z; source: bacterial two-hybrid fusion, expressed in E. coli R721
Regarding B3, in test [6], the binding entry is reported as “no binding”.
